Changes are numbered by the printed parent chain. Names may count otherwise. These are yes or no findings as the source states them, for the method shown. For some of these results: In cells and extracts the contact can be indirect. Some results given as binding are weak or reduced against the parent protein; the word gives no strength. For some of these results: Tags and fused reporters may be left off the sequences shown. One block for each molecule: values may come before it.
What was measured:
[1] = biological target: His_FasL^WT (N-terminal His-tagged human FasL, wild type) (human); experiment: co-IP; OVCAR3 cells treated with His-tagged FasL; immunoprecipitation with anti-His antibody, immunoblot with anti-Fas antibody; only the target purified
[2] = biological target: His_FasL^D164A (printed as His_FasL^D163A in Table 1) (human); experiment: as above
His_FasL^E270A (human) = experiment: as above
[3] = biological target: Fc-tagged Fas (recombinant extracellular domain of Fas with a C-terminal Fc) (human) (UniProt P25445); experiment: condition: 50 nM (highest of the dilution series, methods); ELISA; Fc-tagged Fas (2 μg/ml) coated on 96-well plates; His-tagged FasL (single or tandem) in 2-fold dilutions from 50 to 0.048 nM, 1 h at 37 °C; both purified
[4] = biological target: Fc-tagged Fas (recombinant extracellular domain of Fas with a C-terminal Fc) (human) (UniProt P25445); experiment: ELISA; Fc-tagged Fas (2 μg/ml) coated on 96-well plates; His-tagged FasL (single or tandem) in 2-fold dilutions from 50 to 0.048 nM, 1 h at 37 °C; both purified

Sequences of proteins named here, by UniProt entry; tags and fusion partners are left off. A change or cut given only in a name is not applied to a line headed by its entry. A line that says so, or that is headed by a name, gives the form on record, which may keep a tag or linker. Residues count along the entry.
UniProt P25445: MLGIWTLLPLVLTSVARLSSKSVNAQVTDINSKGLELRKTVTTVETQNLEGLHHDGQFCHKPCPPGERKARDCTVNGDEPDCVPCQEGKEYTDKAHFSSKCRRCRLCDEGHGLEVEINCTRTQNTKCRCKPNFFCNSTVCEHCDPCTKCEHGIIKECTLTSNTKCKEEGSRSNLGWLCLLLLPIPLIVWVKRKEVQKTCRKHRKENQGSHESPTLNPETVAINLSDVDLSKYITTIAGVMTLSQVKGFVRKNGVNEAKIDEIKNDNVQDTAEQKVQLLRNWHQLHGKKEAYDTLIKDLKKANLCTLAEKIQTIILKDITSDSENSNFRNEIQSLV
Fc-tagged Fas (recombinant extracellular domain of Fas with a C-terminal Fc): residues 26-173 of P25445

- binding [3]: no binding
B2: His_FasL^E271A (ligand, human)
chain: GGSPSPPPEKKELRKVAHLTGKSNSRSMPLEWEDTYGIVLLSGVKYKKGGLVINETGLYFVYSKVYFRGQSCNNLPLSHKVYMRNSKYPQDLVMMEGKMMSYCTTGQMWARSSYLGAVFNLTSADHLYVNVSELSLVNFEASQTFFGLYKL
notes: linker between the His tag and FasL; also called A271; source: FreeStyle CHO-S cells, transfected, purified (Ni-Sepharose HisTrap); not shown: His7, N-terminal, kept

- binding [4]: no binding
B3: His_FasL^WT-E163A (tandem: wild-type FasL unit and E163A unit) (ligand)
chain: GGSPSPPPEKKELRKVAHLTGKSNSRSMPLEWEDTYGIVLLSGVKYKKGGLVINETGLYFVYSKVYFRGQSCNNLPLSHKVYMRNSKYPQDLVMMEGKMMSYCTTGQMWARSSYLGAVFNLTSADHLYVNVSELSLVNFEESQTFFGLYKLGGGSGGGSGGGSPSPPPEKKELRKVAHLTGKSNSRSMPLEWADTYGIVLLSGVKYKKGGLVINETGLYFVYSKVYFRGQSCNNLPLSHKVYMRNSKYPQDLVMMEGKMMSYCTTGQMWARSSYLGAVFNLTSADHLYVNVSELSLVNFEESQTFFGLYKL

- binding [4]: no binding
B4: His_FasL^WT-E271A (tandem: wild-type FasL unit and E271A unit) (ligand)
chain: B3 chain with A193E, E301A

Second part, the molecule before the results:

Molecule: Fas (CD95), endogenous on human cells (from UniProt P25445 26-335) (receptor)
- binding [1]: binds
- binding [2]: binds
- binding (His_FasL^E270A (human)): binds

B1: His_FasL^E163A (ligand, human)
chain: B2 chain with E33A, A141E
notes: linker between the His tag and FasL; also called A163; source: FreeStyle CHO-S cells, transfected, purified (Ni-Sepharose HisTrap); not shown: His7, N-terminal, kept
- binding [3]: no binding

Reference: article PMC10657439 (Cell Death and Differentiation, 2023)
